Assay results reported in publication PMC9037272.

B1: CCT2, endogenous in S2 cells (protein, UniProt Q9W392 1-535)
chain: MEMSLNPVRVLKNEAQEEKAEMARLSSFIGAIAIGDLVKSTLGPKGMDKILVATGRNAGHVEVTNDGATILRAVGVDNPAAKILVDMSRVQDEEVGDGTTSVTVLASELLREAEKLVEQKLHPQIIVSGWRQATQVALEALTAAAQDNSSSDEKFRNDLLNIARTTLSSKILHQHKDFFANLAVDAVMRLKGSGELKSIQIIKKSGGTLGDSFLDEGFLLDKKPGVHQPQRIENARILIANTPMDTDKIKVFGSSIKVDSLAKIADLEMAEKEKMKEKVDKILKHKCNVFINRQLIYNYPEQLFADARVMSIEHADFDGIERLAYCTGGEIVSTFENPSLVKLGECDVIEQVMIGEDTLLRFSGVKLGEACTIVIRGATQQILDEADRSLHDALCVLAATVKESRIIFGGGCSEALMATAVLKKAAETPGKEAIAIEAFARALLSLPTAIADNAGYDSAQLVSELRAGHAQGKQTLGLDMELGKVADVRELGITESFAVKRQVLMSASEAAEMILRVDNIIRCAPRRRVPDRGYC
B2: CCT7, endogenous in S2 cells (protein, UniProt Q9VHL2 1-544)
chain: MQPQIVLLKEGTDSSQGKPQLVSNINACQSIVDAVRTTLGPRGMDKLIVDAHGKATISNDGATIMKLLEIIHPAAKTLVDIAKSQDAEVGDGTTSVVLLAGEFLKQVKPFVEEGVHPRVIIKAIRKALQLCMEKINEMAVQIVEQSKDQQRALLEKCAATAMSSKLIHQQKDFFSRIVVDAVLSLDELLPLNMIGIKKVTGGSLEESQLVSGVAFKKTFSYAGFEMAPKSYDNCKIALLNIELELKAERDNAEIRVDNVKEYQKVVDAEWQILYNKLAKIHESGANVVLSKLPIGDVATQYFADRDIFCAGRVPEEDLKRTMKACGGAVMTTANDIKPNVLGLCEHFEERQVGGERFNLFQGCPNAKTSTLILRGGAEQFLEETERSLHDAIMIVRRTIKHDSVVAGGGAIEMELSKLLRDYSRTIAGKEQLLIAAIAKGLEIIPRQLCDNAGFDATNILNKLRQKHAQGGQWYGVDINKEDISDNYEQCVWEPSIIKINALTAAAEAACMILSVDETIKSPKAGEPPMAGGGMGMGRGMGRPM
B3: HSP26, endogenous in S2 cells (protein, UniProt P02517 1-208)
chain: MSLSTLLSLVDELQEPRSPIYELGLGLHPHSRYVLPLGTQQRRSINGCPCASPICPSSPAGQVLALRREMANRNDIHWPATAHVGKDGFQVCMDVAQFKPSELNVKVVDDSILVEGKHEERQDDHGHIMRHFVRRYKVPDGYKAEQVVSQLSSDGVLTVSIPKPQAVEDKSKERIIQIQQVGPAHLNVKANESEVKGKENGAPNGKDK
B4: CG4364, endogenous in S2 cells (protein, UniProt Q9VL96 1-627)
chain: MRRPKKYESGEATQYISRRAALRKLQLSLNDFRRLCILKGVYPREPKHRRRAQKGSSEIKVLYHTKDIRFLLHESIVWTLRDYKIFAKKSNRDRAIKDFRNLKRRLALFPEIKLDHIVKERYPTFIDALKDLDDCLTLLFLFSTFPSLHLIPREQSNLCRRLTIEFLHYVIASKSLRKVFISIKGYYFQAEIKGQKVTWIVPHYYPFKPQSRQEVDFKVMSIFVEFYTIMLGFTNFRLFHGLNLAYPPQFPSSVLQDSEESLKDEASFVSDRIAALNFELLRTDKVQEDEEELDIDMELLEQDGDSKRIIKMKQEAQEVSRLRTLFKGLKFFINREVPREPLVILIRSFGGKVSWDSSIFAGSTYDEGDETITHQIVDRPSITTQYISRDYIQPQWVFDCVNQRQLLPTNKYFIGETLPPHLSPFVDSKRDSYIPPEEKALLDPSLIETHAQSDDDSEDEAQEEEETVDQELLDAQLQLAYQQETAEYKKYGGPDGVNEDEEDPDDEDDNEDDDEEEEELDEKTKRLQEEKQKMSVQSGKVHKVNKRQVHKAEVDEHRLQARMVKPRHRNLFRKLIREKQTKEKEEWLLRKKRRTIEANEKEARKTAKREARKEAAAAAAKASKLGK

Each binder was assayed against HA-EGFP-NtFT4 (tobacco (Nicotiana tabacum)) (assay: affinity purification with mass spectrometry; HA-EGFP-NtFT4 precipitated with magnetic anti-HA beads from combined cytosolic and nuclear extracts of transiently transfected S2 cells, acidic elution, LC-MS/MS of eluates and gel bands; HA-EGFP as reference).

binding	Binder
binds	B1
binds	B2
binds	B3
binds	B4

Results are given in words; binding and its absence hold for the method and conditions named. Binding seen in cells or lysates may run through a third protein. A yes stands for co-enrichment or nearness to the bait. Other partners may have been found.
